Article PMC9943875, “Agonist-controlled competition of RAR and VDR nuclear receptors for heterodimerization with RXR is manifested in their DNA binding” (The Journal of Biological Chemistry, 2023)
These are yes or no findings as the source states them, for the method shown. Binding seen in cells or lysates may run through a third protein. Some entries that bind do so weakly or less than the wild type. Tags and fused reporters may be left off the sequences shown.

By UniProt entry, the sequences of proteins in these tests, tags left out.
UniProt P19793: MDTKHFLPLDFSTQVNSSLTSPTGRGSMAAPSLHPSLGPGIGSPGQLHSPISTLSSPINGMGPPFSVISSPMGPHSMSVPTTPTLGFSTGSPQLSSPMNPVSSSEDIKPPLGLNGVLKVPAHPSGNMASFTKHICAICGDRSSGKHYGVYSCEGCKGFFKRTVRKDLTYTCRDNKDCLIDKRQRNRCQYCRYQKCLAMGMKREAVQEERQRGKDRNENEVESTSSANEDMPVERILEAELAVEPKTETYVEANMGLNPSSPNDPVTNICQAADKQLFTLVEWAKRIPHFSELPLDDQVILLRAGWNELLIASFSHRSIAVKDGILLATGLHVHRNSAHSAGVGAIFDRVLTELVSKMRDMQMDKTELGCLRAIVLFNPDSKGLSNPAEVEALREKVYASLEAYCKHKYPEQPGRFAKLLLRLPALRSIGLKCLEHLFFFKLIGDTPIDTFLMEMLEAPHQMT

Target: mCherry-RXR (retinoid X receptor alpha, N-terminally tagged with mCherry) (UniProt P19793)
Assay: FRET or BRET; FLIM-FRET in nuclei of live transfected cells; donor EGFP, acceptor mScarlet3 or mCherry; E from amplitude-weighted average donor lifetimes against donor-only samples; cells non-treated or treated with 100 nM calcitriol

binding: binds
B1: EGFP-VDR (vitamin D receptor, N-terminally tagged with EGFP) (receptor, UniProt P11473 1-427, looked up)
chain: MEAMAASTSLPDPGDFDRNVPRICGVCGDRATGFHFNAMTCEGCKGFFRRSMKRKALFTCPFNGDCRITKDNRRHCQACRLKRCVDIGMMKEFILTDEEVQRKREMILKRKEEEALKDSLRPKLSEEQQRIIAILLDAHHKTYDPTYSDFCQFRPPVRVNDGGGSHPSRPNSRHTPSFSGDSSSSCSDHCITSSDMMDSSSFSNLDLSEEDSDDPSVTLELSQLSMLPHLADLVSYSIQKVIGFAKMIPGFRDLTSEDQIVLLKSSAIEVIMLRSNESFTMDDMSWTCGNQDYKYRVSDVTKAGHSLELIEPLIKFQVGLKKLNLHEEEHVLLMAICIVSPDRPGVQDAALIEAIQDRLSNTLQTYIRCRHPPPGSHLLYAKMIQKLADLRSLNEEHSKQYRCLSFQPECSMKLTPLVLEVFGNEIS
